Measurements as given in publication PMC8526854.

Molecular target: Avr1d (Phytophthora sojae)
Test: two-hybrid

Binder	binding
AtPUB23 (protein, UniProt Q84TG3 1-411) MSGGIMDEEIEIPPFFLCPISLEIMKDPVIVSTGITYDRDSIEKWLFAGKKNSCPVTKQDITDADLTPNHTLRRLIQSWCTLNASYGVERIPTPRPPICKSEIEKLIRDSASSHENQVKCLKRLRQIVSENATNKRCLEAAGVPEFLANIVSNDSENGSLTDEALNLLYHLETSETVLKNLLNNKKDNNIVKSLTKIMQRGMYESRVYATLLLKNILEVADPMQSMTLKPEVFTEVVQILDDRISQKATKAAMHILVNICPWGRNRHKAVEAGVISVIIELLMDESFTSERRGPEMAMVVLDLLCQCAEGRAEFLNHGAAIAVVCKKILRVSQTASDRAVRVLLSVGRFCATPALLHEMLQLGVVAKLCLVLQVSCGGKTKEKAKELLKLHARVWKDSPCLPKNMILAYPC	binds
AtPUB24 (protein, UniProt Q9SF15 1-456) MDQEEEEIEIPNYFICPISLEIMKDPVTTVSGITYDRQNIVKWLEKVPSCPVTKQPLPLDSDLTPNHMLRRLIQHWCVENETRGVVRISTPRVPPGKLNVVEEIKNLKKFGQEALGREETLQKLEVLAMDGNNRRLMCECGVHKSLILFVVKCTSEDEDGRRRIKGLDESLRLLHLIGIPSNDAKTILMENDRVMESLTWVLHQEDFLSKAYTIVLLRNLTEYTSSHIVERLNPEIFKGIIGFLKDVVNSVNRTSPTVRETVQSSSRPSLGKTEPSKLDHSLVIKQAVTAALMILLETSSWSRNRSLLVDLGAVSELIELEISYTGEKRITELMLGVLSRLCCCANGRAEILAHRGGIAVVTKRLLRVSPAADDRAISILTTVSKFSPENMVVEEMVNVGTVEKLCSVLGMDCGLNLKEKAKEILKDHFDEWKKFPCIDITLLTKLLSISPKGPKI	binds

No constants are given. Whether binding was seen depends on the method and setting. A result given as binding can be weak or reduced; the word gives no strength.
